No constants are given. Whether binding was seen depends on the method and setting. Binding seen in cells or lysates may run through a third protein. These calls come from enrichment with a bait or labelling near it, and not all partners need be listed.
Target: TAP-Kv4.2 (human) (UniProt Q9NZV8)
Experiment: affinity purification with mass spectrometry; TAP-Kv4.2 expressed by lentivirus in rat hippocampal neurons, harvested at DIV14; weak lysis buffer of the kit (0.1% NP-40); streptavidin resin, then calmodulin resin; gel cut into high and low molecular weight fragments; no MS of the control sample

Amino acid sequences for entries named in this document (tags omitted).
UniProt Q9NZV8: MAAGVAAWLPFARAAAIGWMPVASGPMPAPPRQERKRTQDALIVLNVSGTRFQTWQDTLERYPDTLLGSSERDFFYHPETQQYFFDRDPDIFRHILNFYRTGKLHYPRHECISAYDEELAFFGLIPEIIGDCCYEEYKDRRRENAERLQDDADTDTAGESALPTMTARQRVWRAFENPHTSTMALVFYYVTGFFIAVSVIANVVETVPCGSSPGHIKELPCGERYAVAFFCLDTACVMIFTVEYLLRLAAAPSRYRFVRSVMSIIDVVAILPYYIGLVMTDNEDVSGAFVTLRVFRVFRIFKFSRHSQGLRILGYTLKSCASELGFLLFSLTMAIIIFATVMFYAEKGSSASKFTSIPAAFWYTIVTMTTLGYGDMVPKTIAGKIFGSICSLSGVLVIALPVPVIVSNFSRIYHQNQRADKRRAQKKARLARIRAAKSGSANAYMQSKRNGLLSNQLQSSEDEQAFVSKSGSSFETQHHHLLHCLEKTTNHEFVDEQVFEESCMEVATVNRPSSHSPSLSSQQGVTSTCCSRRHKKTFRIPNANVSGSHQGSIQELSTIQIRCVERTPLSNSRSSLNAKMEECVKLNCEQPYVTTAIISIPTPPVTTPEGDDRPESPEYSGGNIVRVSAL

Row | Binder | binding
1 | Cat (protein, UniProt P04762 1-527) MADSRDPASDQMKQWKEQRAPQKPDVLTTGGGNPIGDKLNIMTAGPRGPLLVQDVVFTDEMAHFDRERIPERVVHAKGAGAFGYFEVTHDITRYSKAKVFEHIGKRTPIAVRFSTVAGESGSADTVRDPRGFAVKFYTEDGNWDLVGNNTPIFFIRDAMLFPSFIHSQKRNPQTHLKDPDMVWDFWSLCPESLHQVTFLFSDRGIPDGHRHMNGYGSHTFKLVNANGEAVYCKFHYKTDQGIKNLPVEEAGRLAQEDPDYGLRDLFNAIASGNYPSWTFYIQVMTFKEAETFPFNPFDLTKVWPHKDYPLIPVGKLVLNRNPANYFAEVEQMAFDPSNMPPGIEPSPDKMLQGRLFAYPDTHRHRLGPNYLQIPVNCPYRARVANYQRDGPMCMHDNQGGAPNYYPNSFSAPEQQGSALEHHSQCSADVKRFNSANEDNVTQVRTFYTKVLNEEERKRLCENIANHLKDAQLFIQRKAVKNFTDVHPDYGARVQALLDQYNSQKPKNAIHTYVQAGSHIAAKGKANL | binds
2 | Mest (protein, UniProt Q6P5P5 1-335) MVRRDRLRRMREWWVQVGLLAVPLLAAYLHIPPPQLSPALHSWKTSGKFFTYKGLRIFYQDSVGVVGSPEIVVLLHGFPTSSYDWYKIWEGLTLRFHRVIALDFLGFGFSDKPRPHQYSIFEQASIVESLLRHLGLQNRRINLLSHDYGDIVAQELLYRYKQNRSGRLTIKSLCLSNGGIFPETHRPLLLQKLLKDGGVLSPILTRLMNFFVFSRGLTPVFGPYTRPTESELWDMWAGIRNNDGNLVIDSLLQYINQRKKFRRRWVGALASVTIPIHFIYGPLDPINPYPEFLELYRKTLPRSTVSILDDHISHYPQLEDPMGFLNAYMGFINSF | binds
3 | Pfkl (protein, UniProt P30835 1-780) MATVDLEKLRMSGAGKAIGVLTSGGDAQGMNAAVRAVTRMGIYVGAKVFLIYEGYEGLVEGGENIKPANWLSVSNIIQLGGTIIGSARCKAFTTREGRLAAAYNLLQHGITNLCVIGGDGSLTGANIFRNEWGSLLEELVKEGKISESTAQNYAHLSIAGLVGSIDNDFCGTDMTIGTDSALHRIMEVIDAITTTAQSHQRTFVLEVMGRHCGYLALVSALASGADWLFIPEAPPEDGWENFMCERLGETRSRGSRLNIIIIAEGAIDRHGKPISSSYVKDLVVQRLGFDTRVTVLGHVQRGGTPSAFDRVLSSKMGMEAVMALLEATPDTPACVVSLSGNQSVRLPLMECVQVTKDVQKAMDEKRFDEAIQLRGRSFENNWKIYKLLAHQKVSKEKSNFSLAILNVGAPAAGMNAAVRSAVRTGISEGHTVYVVHDGFEGLAKGQVQEVGWHDVAGWLGRGGSMLGTKRTLPKPHLEAIVENLRTYNIHALLVIGGFEAYEGVLQLVEARGRYEELCIVMCVIPATISNNVPGTDFSLGSDTAVNAAMESCDRIKQSASGTKRRVFIVETMGGYCGYLATVTGIAVGADAAYVFEDPFNIHDLKANVEHMTEKMKTDIQRGLVLRNEKCHEHYTTEFLYNLYSSEGRGVFDCRTNVLGHLQQGGAPTPFDRNYGTKLGVKAMLWMSEKLRDVYRKGRVFANAPDSACVIGLRKKVVAFSSVTELKKETDFEHRMPREQWWLNLRLMLKMLAHYRISMADYVSGELEHVTRRTLSIDKGF | binds
4 | Hnrnpm (protein, UniProt Q62826 1-690) MAAGVEAAAEVAATEPKMEEESGAPCVPSGNGAPVPKGEERPTQNEKRKEKNIKRGGNRFEPYANPTKRYRAFITNIPFDVKWQSLKDLVKEKVGEVTYVELLMDAEGKSRGCAVVEFKMEESMKKAAEVLNKHSLSGRPLKVKEDPDGEHARRAMQKAGRLGSTVFVANLDYKVGWKKLKEVFSMAGVVVRADILEDKDGKSRGIGTVTFEQSIEAVQAISMFNGQLLFDRPMHVKMDERALPKGDFFPPERPQQLPHGLGGIGMGLGPGGQPIDANHLNKGIGMGNLGPAGMGMEGIGFGINKIGGMEGPFGGGMENMGRFGSGMNMGRINEILSNALKRGEIIAKQGGSGAGGSVPGIERMGPGIDRISGAGMERMGAGLGHGMDRVGSEIERMGLVMDRMGSVERMGSGIERMGPLGLDHMASSIERMGQTMERIGSGVERMGAGMGFGLERMAAPIDRVGQTIERMGSGVERMGPAIERMGLSMDRMVPTGMGAGLERMGPVMDRMATGLERMGANNLERMGLERMGANSLERMGLERMGANSLERMGPAMGPALGAGIERMGLAMGGAGGASFDRTIEMERGNFGGSFAGSFGGAGGHAPGVARKACQIFVRNLPFDFTWKMLKDKFNECGHVLYADIKMENGKSKGCGVVKFESPEVAERACRMMNGMKLSGREIDVRIDRNA | binds
5 | Fabp4 (protein, UniProt P70623 1-132) MCDAFVGTWKLVSSENFDDYMKEVGVGFATRKVAGMAKPNLIISVEGDLVVIRSESTFKNTEISFKLGVEFDEITPDDRKVKSIITLDGGVLVHVQKWDGKSTTIKKRRDGDKLVVECVMKGVTSTRVYERA | binds
6 | Hnrnph1 (protein, UniProt Q8VHV7 1-449) MMLGAEGGEGFVVKVRGLPWSCSADEVQRFFSDCKIQNGAQGIRFIYTREGRPSGEAFVELESEDEVKLALKKDRETMGHRYVEVFKSNNVEMDWVLKHTGPNSPDTANDGFVRLRGLPFGCSEEEIVQFFSGLEIVPNGITLPVDFQGRSTGEAFVQFASQEIAEKALKKHKERIGHRYIEIFKSSRAEVRTHYDPPRKLMAMQRPGPYDRPGAGRGYNSIGRGAGFERMRRGAYGGGYGGYDDYNGYNDGYGFGSDRFGRDLNYCFSGMSDHRYGDGGSTFQSTTGHCVHMRGLPYRATENDIYNFFSPLNPVRVHIETGPDGRVTGEADVEFATHEDAVAAMSKDKANMQHRYVELFLNSTAGASGGAYEHRYVELFLNSTAGASGGAYGSQMMGGMGLSNQSSYGGPASQQLSGGYGGGYGGQSSMSGYDQVLQENSSDFQSNIA | binds
7 | Ina (protein, UniProt P23565 1-505) MSFGSEHYLCSASSYRKVFGDGSRLSARLSGPGASGSFRSQSLSRSNVASTAACSSASSLGLGLAYRRLPASDGLDLSQAAARTNEYKIIRTNEKEQLQGLNDRFAVFIEKVHQLETQNRALEAELAALRQRHAEPSRVGELFQRELRELRAQLEEASSARAQALLERDGLAEEVQRLRARCEEESRGREGAERALKAQQRDVDGATLARLDLEKKVESLLDELAFVRQVHDEEVAELLATLQASSQAAAEVDVAVAKPDLTSALREIRAQYESLAAKNLQSAEEWYKSKFANLNEQAARSTEAIRASREEIHEYRRQLQARTIEIEGLRGANESLERQILELEERHSAEVAGYQDSIGQLESDLRNTKSEMARHLREYQDLLNVKMALDIEIAAYRKLLEGEETRFSTSGLSISGLNPLPNPSYLLPPRILSSTTSKVSSAGLSLKKEEEEEEEEEEGASKEVTKKTSKVGESFEETLEETVVSTKKTEKSTIEEITTSSSQKM | binds

More lines, now with the values ahead:

Row | binding | Binder
8 | binds | Pygb (protein, UniProt P53534 1-838) MAKPLTDSERQKQISVRGIAGLGDVAEVRKSFNRHLHFTLVKDRNVATPRDYFFALAHTVRDHLVGRWIRTQQHYYERDPKRIYYLSLEFYMGRTLQNTMVNLGLQTACDEATYQLGLDLEELEEIEEDAGLGNGGLGRLAACFLDSMATLGLAAYGYGIRYEFGIFNQKIVNGWQVEEADDWLRYGNPWEKARPEYMLPVHFYGRVEHTPNGVLWLDTQVVLAMPYDTPVPGYKNNTVNTMRLWSAKAPNDFKLKDFNVGDYIEAVLDRNLAENISRVLYPNDNFFEGKELRLKQEYFVVAATLQDIIRRFKSSKFGCRDPVRTCFETFPDKVAIQLNDTHPALSIPELMRILVDVEKVDWDKAWEITKKTCAYTNHTVLPEALERWPVSMFEKLLPRHLEIIYAINQRHLDHVAALFPGDVDRLRRMSVIEEGDCKRINMAHLCVIGSHAVNGVARIHSEIVKQSVFKDFYELEPEKFQNKTNGITPRRWLLLCNPGLAEIIVERIGEGFLTDLSQLKKLLSLVDDEAFIRDVAKVKQENKLKFSAQLEKEYKVKINPCSMFDVHVKRIHEYKRQLLNCLHIITLYNRIKKDPTKTFVPRTVMIGGKAAPGYHMAKMIIKLVTSIGDVVNHDPVVGDRLRVIFLENYRVSLAEKVIPAADLSQQISTAGTEASGTGNMKFMLNGALTIGTMDGANVEMAEEAGEENLFIFGMRVEDVEALDQKGYNAQEFYERLPELRQAVDQISSGFFSPKDPDCFKDVVNMLMYHDRFKVFADYEAYIQCQAQVDHLYRNPKDWTKKVIRNIACSGKFSSDRTITEYAREIWGVEPSDLQIPPP
9 | binds | Pgk1 (protein, UniProt P16617 1-417) MSLSNKLTLDKLDVKGKRVVMRVDFNVPMKNNQITNNQRIKAAVPSIKFCLDNGAKSVVLMSHLGRPDGVPMPDKYSLEPVAAELKSLLGKDVLFLKDCVGSEVENACANPAAGTVILLENLRFHVEEEGKGKDASGNKVKAEPAKIDAFRASLSKLGDVYVNDAFGTAHRAHSSMVGVNLPQKAGGFLMKKELNYFAKALESPERPFLAILGGAKVADKIQLINNMLDKVNEMIIGGGMAFTFLKVLNNMEIGTSLYDEEGAKIVKDLMAKAEKNGVKITLPVDFVTADKFDENAKTGQATVASGIPAGWMGLDCGTESSKKYAEAVARAKQIVWNGPVGVFEWEAFARGTKSLMDEVVKATSRGCITIIGGGDTATCCAKWNTEDKVSHVSTGGGASLELLEGKVLPGVDALSNV
10 | binds | Slc4a1 (protein, UniProt P23562 1-927) MGDMQDHEKVLEIPDRDSEEELEHVIEQIAYRDLDIPVTEMQESEALPTEQTATDYIPTSTSTSHPSSSQVYVELQELMMDQRNQELQWVEAAHWIGLEENLREDGVWGRPHLSYLTFWSLLELQKVFSKGTFLLDLAETSLAGVANKLLDSFIYEDQIRPQDRDELLRALLLKRSHAEDLKDLEGVKPAVLTRSGAPSEPLLPHQPSLETKLYCAQAEGGSEEPSPSGILKIPPNSETTLVLVGRASFLVKPVLGFVRLKEAVPLEDLVLPEPVSFLLVLLGPEAPHIDYTQLGRAAATLMTERVFRVTASLAQSRGELLSSLDSFLDCSLVLPPTEAPSEKALLNLVPVQKELLRKRYLPRPAKPDPNLYEALDGGKEGPGDEDDPLRRTGRIFGGLIRDIRRRYPYYLSDITDALSPQVLAAVIFIYFAALSPAVTFGGLLGEKTRNLMGVSELLISTAVQGILFALLGAQPLLVLGFSGPLLVFEEAFYSFCESNNLEYIVGRAWIGFWLILLVVLVVAFEGSFLVQYISRYTQEIFSFLISLIFIYETFSKLIKIFQDYPLQESYAPVVMKPKPQGPVPNTALLSLVLMVGTFLLAMMLRKFKNSTYFPGKLRRVIGDFGVPISILIMVLVDTFIKNTYTQKLSVPDGLKVSNSSARGWVIHPLGLYNHFPKWMMFASVLPALLVFILIFLESQITTLIVSKPERKMIKGSGFHLDLLLVVGMGGVAALFGMPWLSATTVRSVTHANALTVMGKASGPGAAAQIQEVKEQRISGLLVSVLVGLSILMEPILSRIPLAVLFGIFLYMGITSLSGIQLFDRILLLFKPPKYHPDVPFVKRVKTWRMHLFTGIQIICLAVLWVVKSTPASLALPFVLILTVPLRRLLLPLIFRELELQCLDGDDAKVTFDEAEGLDEYDEVPMPV
11 | binds | Zwint (protein, UniProt Q8VIL3 1-266) MADAEKNAVAEKNAVAEENAVAEENAVADKNATKEVLAEAASVLEPVGLPEEAELPAKIMEEFMRNSRKKDKLLCSQLQVVNFLQTFLAQEDNTDQNPDALASEDTSRQKATETKEQWKELKATYMDHVDVIKCALSEALPQVKEAHRKYTELQKAFEQLEAKKRVLEEKLQLAQKQWVLQQKRLQNLTKISAEVKRRRKRALEKLDGSHQELETLKQQAGQEQEKLQRNQSYLQLLCSLQNKLVISESKADDKDVKGPALPPKSP

— article PMC9788671
